# Screening data, single-dose tests

Source: ChEMBL document CHEMBL3988442, “University of Dundee, Small-Polar-MMV Screening Library” (2021).

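Phenotypic screen: M. tuberculosis growth, cholesterol and DPPC medium, 4 days; the read-out is not stated. Concentration: 50 µM. Direction is inferred from retests: higher values go with more growth inhibition. Size under these conditions: about 69,000 compounds, about 370 of them at 50% or above in at least one test.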

Each number is a percent effect as filed.
The controls that fix the scale are not given in the record; negative values are as filed.
This is an unselected part of the compounds tested.
Two or more numbers in one place are separate tests of the same structure; such repeats can differ widely.

structure	effect
CCc1nnc2n1CC(CNCc1nnc(C(C)(C)C)o1)CC2 (stereo not given)	6.383%
O=C1CC[C@@H](CN(Cc2ccncc2)Cc2nc(CC3CC3)no2)N1	13.85%
CCC(O)CN1CCN(C(=O)c2ccnc(N(C)C)c2)CC1 (stereo not given)	4.817%
Cc1ccc(CN2CCc3ncnc(OC(C)C)c3CC2)s1.O=C(O)C(F)(F)F	12.09%
CC(C)n1cnnc1CNC(=O)c1cnn(Cc2ccccc2)c1	9.447%
[H][C@]12CC[C@]([H])(CC(=O)N(C)C1)N2C(=O)c1ccc(C)[nH]c1=O	-10.57%
O=C(Cc1ccc(-n2cnnn2)cc1)Nc1cnn(CC(F)F)c1	-9.069%
COc1ncccc1CN1CCN(c2noc(C(C)C)n2)CC1	-14.75%
CNC(=O)CSC(C)c1ccc(Br)cc1 (stereo not given)	-10.95%
CC(C)C(C#N)N1CCN(C(=O)c2cc(-c3ccccn3)no2)CC1 (stereo not given)	10.25%
CCN(CC(=O)Nc1c(C)n[nH]c1C)CC(O)c1ccc(C)cc1 (stereo not given)	-6.334%
COc1c(CNC2CCCN(c3ncccn3)C2)c(C(C)C)nn1C (stereo not given)	-17.28%
COc1ccccc1CNC(Cc1cccs1)c1nc(C)cs1.Cl (stereo not given)	6.284%
CCS(=O)(=O)N1CCC2(CC1)CC1(CCN(CCOC)CC1)C(=O)N2C.O=C(O)C(F)(F)F	6.412%
O=C(O)C(F)(F)F.[H][C@@]12CCCO[C@]1([H])[C@@H](OCC1CC1)CN2Cc1c(C)noc1C	-11.64%
O=C(c1ccco1)N1CCc2onc(CN3CCCC3)c2C1	-63.38%
CN(Cc1ncc[nH]1)S(=O)(=O)c1cccc(C(=O)N2CCOCC2)c1	-18.15%
CC(Cn1cccn1)NC(=O)NCCN1CCCCCC1=O (stereo not given)	-13.09%
Cc1cnn(C2CCCN(C(=O)Cc3ccc4c(c3)CCO4)C2)c1 (stereo not given)	-8.737%
c1ccc2ncc(CC3CCNC3)cc2c1 (stereo not given)	-5.328%
[H][C@@]12OCCN(S(=O)(=O)CC)[C@@]1([H])CC[C@H]2OCC1CCCC1	20.46%
OC1(CN(Cc2cccnc2)C2CCCCC2)CNCCOC1 (stereo not given)	8.04%
O=C(c1cc(F)cc(F)c1)N1CCC2(CC1)CC2	13.15%
Cn1cc(S(=O)(=O)NC(CO)Cc2c[nH]c3ccccc23)cn1 (stereo not given)	-16.11%
Cn1nc(Cn2ccnc2)c2c1CN(c1nccs1)C2.O=C(O)C(F)(F)F.O=C(O)C(F)(F)F	21.62%
COCC(=O)N1CCCC2(COCCN(CCN(C)C)C2)C1.O=C(O)C(F)(F)F.O=C(O)C(F)(F)F (stereo not given)	-3.627%
CCN1CC2(CCN(CCOCCO)CC2)CC(c2ccccc2)C1=O (stereo not given)	-36.89%
Cc1ccc2c(n1)N(CCn1cccn1)CCN(CC1CC1)C2.O=C(O)C(F)(F)F.O=C(O)C(F)(F)F	-3.205%
CC(=O)N1Cc2ccccc2CC1C(=O)Nc1ccc(N(C)C)cn1 (stereo not given)	-0.3227%
Cc1ccc(CC(=O)N2CCCC(c3ccn[nH]3)C2)cn1 (stereo not given)	10.41%
CC(=O)N1CC(c2n[nH]c3ncccc23)C1	-33.94%
COCCOc1cccc(CNCc2c(C)nn(C)c2N(C)C)c1	4.865%
c1cc(-c2cnc(NC3CC3)nc2[C@H]2CCCO2)ccn1	2.594%
COCC(=O)N[C@@H]1CN(Cc2ccc3c(c2)OCCO3)C[C@H]1O	2.108%
O=C(O)C(F)(F)F.[H][C@]12CCC[C@@]1(COc1ccccn1)CN(C(=O)C1CCOCC1)C2	-7.585%
COc1ccc(N2CCC(NS(=O)(=O)N(C)C(C)C)CC2)cc1	-3.734%
O=C(CSc1ccc2c(c1)OCCO2)NS(=O)(=O)c1ccccc1F	-2.376%
Cc1nc(C)c(C(=O)N2CCC(O)(Cn3ccc4ccncc43)CC2)s1	-18.85%
Cc1nc(C(C)NC(=O)c2cn(Cc3ccc(Cl)cc3)nn2)n[nH]1 (stereo not given)	-3.908%
CCN(C)C(=O)CN1CCC(c2cc(N3CCOCC3)nc(C)n2)CC1	16.84%
CCCS(=O)(=O)N1CCOC2(COCCN(C(C)=O)C2)C1 (stereo not given)	8.235%
Cc1[nH]nc2ncc(C(=O)N3CCCC3c3noc(C(C)C)n3)cc12 (stereo not given)	1.389%
c1ccc(N2CCN(Cc3cnc(C4CCCCO4)nc3)CC2)nc1 (stereo not given)	7.697%
CC(O)CN1CCN(C(=O)c2ccc3c(c2)COC3)CC1 (stereo not given)	17.36%
CN(CC1CCCCC1)C(=O)c1cn(C)nc1-c1cccnc1	7.62%
O=C(NC1CC1)c1ccnc(-c2cc(NCCO)nc3[nH]ccc23)c1	-31.92%
c1ccc(-c2nc(CNCCn3cccn3)cs2)nc1	23.87%
CN(CCn1nc2ccccn2c1=O)CC(=O)N(C)C1CCCCC1	14.34%
O=C1OCCN1CCN1CCCN(Cc2ccccc2F)CC1	13.84% and -1.213%
Cc1ccccc1OCC1CCCN(C(=O)CN(C)C2CCNCC2)C1 (stereo not given)	4.816%
O=C(CCC(=O)c1ccccc1)NC1(C(=O)NCC2CC2)CCCC1	-7.132%
CN(CCSc1ccccc1)C(=O)C(c1cccnc1)N1CCOCC1 (stereo not given)	-44.19%
O=C(CSCC1CC1)N1CCCC(c2nccn2Cc2ccncc2)C1 (stereo not given)	-1.967%
Cn1cnnc1CC1CCN(Cc2nn(C)c3cccc(Cl)c23)CC1	-45.22%
Cc1nn(C)c(N(C)C)c1CNCc1ccc(OCCN(C)C)cc1	-32.83%
CCCS(=O)(=O)CC(=O)NC(C)c1cccc(-n2cccn2)c1 (stereo not given)	-8.388%
O=C(C1CCCN(CCc2ccc3c(c2)CCO3)C1)N1CCCC1 (stereo not given)	-2.71%
O=C(O)C(F)(F)F.O=C(O)C(F)(F)F.O=C(O)C(F)(F)F.[H][C@@]12CO[C@@H](CN3CCN(C)CC3)[C@]1([H])CCN(Cc1ccc(C)s1)C2	-23.38%
CNC(=O)c1sc2ccccc2c1C1CCN(c2cc(C)nc(C)n2)C1 (stereo not given)	-32.14%
Cc1cnn(CC2CN(Cc3nc4ccccc4c(=O)[nH]3)CCO2)c1 (stereo not given)	-8.289%
CC(=O)N1CCN(c2cc(C3CCNCC3)ccn2)CC1.Cl.Cl	1.843%
O=C(Nc1ccc2c(c1)C(=O)NC2=O)c1cccs1	10.6%
[H][C@@]12CNC[C@@]1([H])N(CC1CC1)C(=O)CO2	-18.38%
[H][C@@]12CCN(C(=O)NCC)C[C@]1([H])CCN(C1CCCCC1)C(=O)C2	22.64%
CC(C)c1nc(O)c2nnn(C[C@H]3CCCN(Cc4ccsc4)C3)c2n1	10.64%
CC(Cn1ccnc1)NC(=O)N1CCN(Cc2ccncc2)CC1 (stereo not given)	12.15%
CCn1cc2c(n1)C(COC)CN(Cc1ccccn1)C2 (stereo not given)	-50.61%
CCSCCC(C)N(C)C(=O)c1ccc2nncn2c1 (stereo not given)	-23.26%
Cc1nc(C)n(CC2CN(Cc3noc(C4CC4)n3)CCO2)n1 (stereo not given)	-6.528%
OC1(CNCCN2CCCc3ccccc32)CCNC1 (stereo not given)	12.89%
COCCC(=O)Nc1nc2c(OC)cc(F)cc2s1	7.646%
Cc1nn(C)c(C)c1C1COCCN1C(=O)c1cc(F)ccc1F (stereo not given)	-1.395%
Nc1cc(-c2cc[nH]n2)nc(N2CCCC2)n1	-36.72%
CCN(Cc1nnsc1Cl)C(C)c1ccc(C#N)cc1 (stereo not given)	33.46%
CS(=O)(=O)NCc1cn2c(n1)CN(Cc1ccoc1)CC2.O=C(O)C(F)(F)F	-22.09%
O=S(=O)(N1CCCCCC1)N1CCc2sccc2C1	-7.115%
CC(C)n1ccnc1CN1CCCN(C(=O)c2cnn(C)c2)CC1	7.358%
CN(Cc1c(Cl)ccc2cccnc12)CC(C)(CO)CO	-5.417%
Cc1[nH]ncc1C(C)NCc1ccc(F)cc1 (stereo not given)	-12.52%
[H][C@@]12CCN(C[C@@H]1CN1CCCC1)[C@@H](CNS(=O)(=O)c1ccc(Cl)cc1)C2	-19.45%
Cn1c(N2CCOCC2)nc2cc(C(=O)NCc3cccnc3)ccc21	-4.495%
[H][C@]12CC[C@](O)(c3ccccc3F)[C@@]1([H])CN(C(=O)c1cc(C3CC3)n[nH]1)C2	-4.799% and -10.23%
CC(C)Nc1nc2c(c(NC3CC3)n1)CN(C(=O)c1ccnnc1)CC2	-18.13%
O=C(O)C(F)(F)F.[H][C@@]12CCN(C(=O)c3ccccc3)[C@@]1([H])CC(=O)N2CCN1CCOCC1	-9.719%
Cc1nc(CC(=O)N(C)C2CCCN(CCc3ccccc3)C2)cs1 (stereo not given)	1.746%
COc1cccc2c1OCC(CNc1cc(N)nc(SC)n1)C2 (stereo not given)	0.4381%

For reference, 6 entries once more:

structure	effect
Cn1c(N2CCOCC2)nc2cc(C(=O)NCc3cccnc3)ccc21	-4.495%
O=C(c1cc(F)cc(F)c1)N1CCC2(CC1)CC2	13.15%
COc1ncccc1CN1CCN(c2noc(C(C)C)n2)CC1	-14.75%
O=C(CSCC1CC1)N1CCCC(c2nccn2Cc2ccncc2)C1 (stereo not given)	-1.967%
CCN(CC(=O)Nc1c(C)n[nH]c1C)CC(O)c1ccc(C)cc1 (stereo not given)	-6.334%
Nc1cc(-c2cc[nH]n2)nc(N2CCCC2)n1	-36.72%